Test results as given in publication PMC13470446.

Biological target: microtubule polymers
Test: co-sedimentation; microtubule pelleting assay; fraction of microtubule-bound Smc5 plotted against microtubule concentration, Kd by curve fitting to a hyperbola; 3 independent experiments; both purified

B1: Smc5 hinge domain (residues 215–885) (domain or fragment, UniProt Q08204 215-885)
chain: LRELQGNEQSLQKDLDFKKAKIVHLRQESDKLRKSVESLRDFQNKKGEIELHSQLLPYVKVKDHKEKLNIYKEEYERAKANLRAILKDKKPFANTKKTLENQVEELTEKCSLKTDEFLKAKEKINEIFEKLNTIRDEVIKKKNQNEYYRGRTKKLQATIISTKEDFLRSQEILAQTHLPEKSVFEDIDIKRKEIINKEGEIRDLISEIDAKANAINHEMRSIQRQAESKTKSLTTTDKIGILNQDQDLKEVRDAVLMVREHPEMKDKILEPPIMTVSAINAQFAAYLAQCVDYNTSKALTVVDSDSYKLFANPILDKFKVNLRELSSADTTPPVPAETVRDLGFEGYLSDFITGDKRVMKMLCQTSKIHTIPVSRRELTPAQIKKLITPRPNGKILFKRIIHGNRLVDIKQSAYGSKQVFPTDVSIKQTNFYQGSIMSNEQKIRIENEIINLKNEYNDRKSTLDALSNQKSGYRHELSELASKNDDINREAHQLNEIRKKYTMRKSTIETLREKLDQLKREARKDVSQKIKDIDDQIQQLLLKQRHLLSKMASSMKSLKNCQKELISTQILQFEAQNMDVSMNDVIGFFNEREADLKSQYEDKKKFVKEMRDTPEFQSWMREIRSYDQDTKEKLNKVAEKYEEEGNFNLSFVQDVLDKLESEIAMVNHDES
Q: How did the binding turn out when B1 was run?
A: binds

No constants are given. Whether binding was seen depends on the method and setting. Binding can be weak; no strength is given.
